# Laboratory results from article PMC10163288.
# The list shows a part of the results.
# B1: il10ra_site1_sap_24_mot_HHH_b1_00103_000000293_0001_1_15_H_._HHH_b2_07203_0001_0000100004_0000002_0_0001_af2pred_0001 (protein)
# chain: SSSSSEEVEKLIEEAERALEEGNPEEAKELLFEAALLAARLKDPELAELVARLIAELLRLGSSSS
# B2: il10ra_site1_sap_19_mot_HHH_b1_04693_000000238_0001_19_36_H_._HHH_b2_00279_0001_0000200008_0000001_0_0001 (protein)
# chain: TRQIEAVLRNARTAGDEEVERIVERVEELIKRGNLEEAEELLRELAERTGNLFLFQLLFIVRALK
# B3: il10ra_site1_normal_mot_HHH_b1_03900_000000129_0001_1_16_H_._HHH_b1_03343_af2_0001_0000300011_0000001_0 (protein)
# chain: SSSSDDRVYELIRRIARLLIRGNPEEAEELLRELEELAQELNDPELERAVEILEEAIEATSSSSS
# B4: il10ra_site1_normal_mot_HHH_b1_06994_000000193_0001_40_55_H_._HHH_b2_03966_0001_0000200017_0000001_0 (protein)
# chain: SSSSDEERELIEAALRLARQAYEAGDPRAVRFLLIAAELLAEEINDPELEREIEELEEELSSSSS
# B5: il10ra_site1_normal_mot_HHH_b1_00999_000000080_0001_41_55_H_._HHH_b1_01510_0001_0000400038_0000002_0 (protein)
# chain: SSSSSSTREEVEELLEELEHLTDPREFLEVILRIIELIFRLKDEELLQELWEIAKRLGSSSSSSS
# B6: il10ra_site1_sap_20_mot_HHH_b2_00984_000000042_0001_1_20_H_._HHH_b1_08566_af2_0001_0000200002_0000001_1_0001 (protein)
# chain: SSSSDLEEKIEEVERQVREALERGDDEEARKLVEELARLVARRRDPRASYLVIQLYAEVWQSSSS
# B7: il10ra_site1_sap_14_mot_HHH_b1_06789_af2_000000041_0001_1_20_H_._HHH_b1_02399_af2_0001_0000100006_0000001_0_0001 (protein)
# chain: SSSSDEVSEEVMRLLEKASELAQNGDREEAQRLAEEARELAEEANNPILRLSVEYLLRSINSSSS
# B8: il10ra_site1_sap_13_mot_5d0551e3c4357af680d60aaa850e4cea_0001_1_af2_000000133_0001_18_33_H_._HHH_b2_02281_0001_0000100002_0000001_0_0001 (protein)
# chain: SSSSDEAVKRVAELIKKANELWREGNPEEVERLLEEAERVAEEAGNQLLLETVEYAARINSSSSS
# B9: il10ra_site1_normal_mot_HHH_b2_03220_af2_000000223_0001_23_40_H_._HHH_b2_06988_0001_0000100002_0000002_0_af2pred_0001 (protein)
# chain: SSSSSDEQRRAIELIREALEARQRGDPEEARQLLEEAEELAEEGNNPLAERLARLLLEQLSSSSS
# B10: il10ra_site1_sap_28_mot_HHH_b2_01776_000000118_0001_38_52_H_._HHH_b1_02755_0001_0000100001_0000001_0_0001_af2pred_dldesign_0_af2pred (protein)
# chain: SSSSMKEWLERALANTRQLIDLGYKEEAAKALEYLEAVAKIENNPEFLARLEELRARLAELSSSS
# B11: il10ra_site1_sap_15_mot_HHH_b2_07336_af2_000000224_0001_1_17_H_._HHH_b2_03461_af2_0001_0000300012_0000001_0_0001 (protein)
# chain: SSSSDELEEELIKLLEELLHAYVEGDEELIEKLLEEVKKIAEEANNRAARKSLEAIERALSSSSS
# B12: il10ra_site1_normal_mot_HHH_b2_00564_af2_000000012_0001_18_34_H_._HHH_b2_05650_0001_0000300024_0000001_0 (protein)
# chain: SSSSSTEELYEFARRLAELLHEGDKDEVRELLEEAKQLAEELNNENIEEQLKFIERLVERSSSSS
# B13: il10ra_site1_sap_15_mot_b26a303360aa2756ef5b79665ce52f45_0001_000000179_0001_1_11_H_._HHH_b1_01396_0001_0000100011_0000001_0_0001_af2pred_0001 (protein)
# chain: SSSSDVEEELEELLEEAKRIEDLDRAAYVLIRAFALATERRDPELEEFVKRAALEISEEGSSSSS
# B14: il10ra_site1_normal_mot_HHH_b1_03094_000000294_0001_1_20_H_._HHH_b2_05552_0001_0000300030_0000001_0 (protein)
# chain: SSSSDAEEVLELIIRAFRALLRGDPEEAEKLVEEAKEIAEENNDPELEKAVEILEEAVRAQSSSS
# B15: il10ra_site1_sap_8_mot_HHH_b1_05357_000000034_0001_23_39_H_._HHH_b1_00439_af2_0001_0000200019_0000001_0_0001 (protein)
# chain: SSSSSVEERLAELMLEAVRLAAKENDPEEAREVLEEVERLAEENNDEELQRYLKILEHFVNSSSS
# B16: il10ra_site1_normal_mot_HHH_b1_02397_af2_000000085_0001_39_57_H_._HHH_b2_07534_0001_0000300029_0000001_1 (protein)
# chain: SSSSDEEEEELRRLLEEVEELLERGDPEEAARVTQELLRLIFRLRDEEALKRLHELFMRAASSSS
# B17: il10ra_site1_normal_mot_HHH_b1_00999_000000080_0001_41_55_H_._HHH_b1_03194_0001_0000200012_0000001_0 (protein)
# chain: SSSSSSDVEELLEELEELLEQGNKEEALEILQRALQLAYRRSDPELLKLLWEFAKRLGSSSSSSS
# B18: il10ra_site1_normal_mot_HHH_b2_04679_000000194_0001_21_38_H_._HHH_b1_02740_0001_0000100005_0000001_0 (protein)
# chain: SSSSQEAYRLVRRAIEEAARLFREGNPEEARRLLEEALEQLEELGNFAAVFAIRNLLRALSSSSS
# B19: il10ra_site1_sap_16_mot_HHH_b1_04708_000000195_0001_1_19_H_._HHH_b1_06392_0001_0000100003_0000002_0_0001_af2pred_0001 (protein)
# chain: SSSDEKSRLALEAAKLSLKYLLEQGNEKVAEAAVRLAKAALELLGDEEAVEELERYFEELRSSSS
# B20: il10ra_site1_normal_mot_HHH_b1_03859_af2_000000004_0001_44_57_H_._HHH_b2_05239_0001_0000100004_0000003_1_af2pred_dldesign_0_af2pred (protein)
# chain: SSSSNEEARAIIRRTLEAARQIPAEEARKALAYARAMAEALGDEELLAELERVEAEIEAESSSSS
# B21: il10ra_site1_sap_20_mot_HHH_b1_06804_000000054_0001_40_54_H_._HHH_b2_04909_0001_0000200021_0000001_0_0001 (protein)
# chain: SSSSDRAREVYELSRRIAELLSRGDREEAEELLERARELIEELGDRLLKFILELLERQVNSSSSS
# B22: il10ra_site1_normal_mot_HHH_b2_01656_000000035_0001_1_20_H_._HHH_b2_07112_0001_0000100008_0000001_0 (protein)
# chain: SSSSDEEFEKVRELYKEAKELYENGNPEEAQRLLEELLRELEELGNWVRVFSVRHALRVLSSSSS
# B23: il10ra_site1_sap_20_mot_HHH_b2_00297_af2_000000255_0001_43_56_H_._49a7c9051cacde34b31d84fabeb7f3ea_0001_af2_0001_0000900009_0000001_0_0001_af2pred_0001 (protein)
# chain: SSSSDETEELVRILREVAELHHEGDPEEAERLLEEAEELAREAGNVIAEVIIEFLQKQLKSSSSS
# B24: il10ra_site1_sap_32_mot_HHH_b1_05088_af2_000000046_0001_20_36_H_._HHH_b2_04743_0001_0000100005_0000002_0_0001 (protein)
# chain: SSSSTEEAREVYELLRRIVELDHEGNPEEAKELAEEAEELARRGNNDVMLEQVKYLERLLNSSSS
# B25: il10ra_site1_sap_25_mot_HHH_b1_03531_000000273_0001_41_54_H_._HHH_b1_06918_0001_0000100004_0000002_0_0001 (protein)
# chain: SSSSSDEEIREEVEELLEEAKQISDADKRYRLLREAVELAAKLNDPELYKLVLEASRELFSSSSS
# B26: il10ra_site1_sap_24_mot_HHH_b1_03613_af2_000000245_0001_1_20_H_._HHH_b2_03420_0001_0000300038_0000001_1_0001 (protein)
# chain: SSSSSDFEKELEELLKELEELVREGDRERFAKVALRIIRLAFQGSDEEALQELWKLVQEYNSSSS
# B27: il10ra_site1_normal_mot_HHH_b1_06837_000000150_0001_20_37_H_._HHH_b1_03571_0001_0000100005_0000001_0 (protein)
# chain: SSSSDEEARRLYELARRISELDHEGNPEEARELLEELEKLAEEANNELFKFLVKHLEKVLRSSSS
# B28: il10ra_site1_normal_mot_HHH_b1_05139_af2_000000007_0001_1_19_H_._HHH_b2_08055_0001_0000200014_0000001_0_af2pred_0001 (protein)
# chain: SSSSDTDEEAKETIRHYLEFALELGDEEALRDALELAEKVAKILNDEELERLVREAEEELSSSSS
# B29: il10ra_site1_sap_24_mot_HHH_b1_05426_000000183_0001_42_56_H_._HHH_b1_02346_af2_0001_0000200015_0000002_0_0001_af2pred_0001 (protein)
# chain: SSSSTEEFIRLSEKFAKFLLEQGDPEAARFILEAAAEVARRDGNEEALERLEELLREVEEKSSSS
# B30: il10ra_site1_normal_mot_HHH_b1_06994_000000193_0001_40_55_H_._HHH_b2_01117_0001_0000100003_0000002_0 (protein)
# chain: SSSSDQEEELVRAAIRLLEQALKAGDEELARFLYWSAQLLAEELNDPELEKEIERVFEEGSSSSS
# B31: il10ra_site1_sap_13_mot_e1dd4851c59bc1cdde016f988f6856bd_0001_1_000000200_0001_16_31_H_._HHH_b1_08578_0001_0000200030_0000001_0_0001 (protein)
# chain: SSSSSEEEEYIRLALRFLRWLVEVGDEESLKRMHKAIKEMIERANNEELQELLEKVEKELSSSSS
# B32: il10ra_site1_normal_mot_HHH_b2_00984_000000042_0001_1_20_H_._HHH_b1_02950_0001_0000100001_0000002_0 (protein)
# chain: SSSSSDKFRELAQRALQLAFRLSDEETLQRIWELIKEYAEKGDPRIEEELEELLEELEERSSSSS
# B33: il10ra_site1_sap_18_mot_HHH_b1_02397_af2_000000085_0001_39_57_H_._HHH_b2_06048_0001_0000300031_0000002_0_0001 (protein)
# chain: SSSSSHDERYLELALRFLKWLLEVGDEESVKKTLRAVKHLAEQLNDEEVEEQLREVEERISSSSS
# B34: il10ra_site1_normal_mot_HHH_b1_00814_af2_000000078_0001_43_57_H_._HHH_b2_03174_af2_0001_0000100007_0000001_0_af2pred_0001 (protein)
# chain: SSSSSDEVEERVEELLEEAEKTSDPEEALRLLREALELALKNNDPELERLVLEVIRKLISSSSSS
# B35: il10ra_site1_sap_22_mot_HHH_b1_06912_af2_000000235_0001_1_15_H_._HHH_b1_07786_af2_0001_0000200007_0000001_0_0001 (protein)
# chain: SSSDDTERVQELIERAAELLREGDEERAQELIEEAEELAEELNNWAARFAVEALRRSLEALSSSS
# B36: il10ra_site1_sap_20_mot_HHH_b1_07527_000000076_0001_1_15_H_._HHH_b1_03840_af2_0001_0000300020_0000001_0_0001_af2pred_0001 (protein)
# chain: SSSSDEEEKRAEELAEEIKELLERGNLHEAIRLVRELIELALKLNDEELLKLALRLSREIISSSS
# B37: il10ra_site1_normal_mot_HHH_b1_06816_000000239_0001_1_19_H_._HHH_b2_02034_0001_0000500019_0000002_0_af2pred_0001 (protein)
# chain: SSSSSSDLEEQAEELLEEVEKIDNPQERTEVARKAIKLAVRAGNPELARRISEIATRLSSSSSSS
# Target: il10ra, Q13651
# Assay: yeast display titration
row,Binder,apparent Kd
1,B1,inactive: no binding seen
2,B2,inactive: no binding seen
3,B3,inactive: no binding seen
4,B4,inactive: no binding seen
5,B5,inactive: no binding seen
6,B6,inactive: no binding seen
7,B7,inactive: no binding seen
8,B8,inactive: no binding seen
9,B9,inactive: no binding seen
10,B10,inactive: no binding seen
11,B11,inactive: no binding seen
12,B12,inactive: no binding seen
13,B13,inactive: no binding seen
14,B14,inactive: no binding seen
15,B15,inactive: no binding seen
16,B16,inactive: no binding seen
17,B17,inactive: no binding seen
18,B18,inactive: no binding seen
19,B19,inactive: no binding seen

row,Binder,apparent Kd
1,B20,inactive: no binding seen
2,B21,inactive: no binding seen
3,B22,inactive: > 4.1 µM
4,B23,inactive: no binding seen
5,B24,inactive: no binding seen
6,B25,inactive: no binding seen
7,B26,inactive: no binding seen
8,B27,inactive: no binding seen
9,B28,inactive: no binding seen
10,B29,inactive: no binding seen
11,B30,inactive: no binding seen
12,B31,inactive: no binding seen
13,B32,inactive: no binding seen
14,B33,inactive: no binding seen
15,B34,inactive: no binding seen
16,B35,inactive: no binding seen
17,B36,inactive: no binding seen
18,B37,inactive: no binding seen

# Taken from above:
# Entry for B3 under apparent Kd: inactive: no binding seen
# Entry for B26 under apparent Kd: inactive: no binding seen
